# Reference: PubChem BioAssay AID493014 (National Center for Advancing Translational Sciences (NCATS), 2011)
# This is one part of the list. Shown are side measurements of this screen, not its main read-out; they come without a call. Most of these compounds were active or inconclusive in the main read-out, so they are no random draw. Words in brackets tell the shape of the fitted curve; partial curves, single points and poor fits give uncertain potencies.
# Test: qHTS Assay to Find Inhibitors of Chronic Active B-Cell Receptor Signaling
# Conditions: ABC-DLBCL IkBa-CBG/CBR reporter, luminescence ratio (green luciferase fused to IkBa over red control in TMD8 lymphoma cells), 4 h
# Outline: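 Cell line TMD8 (human ABC DLBCL), stably expressing tet-inducible CBG68-IkBa fusion and CBR; IMDM/0.5% FBS; cpd up to 46 uM; dox induction, 4 h, 37C/5% CO2; dual luminescence; green/red ratio; MG132 control.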
# [1] = measured here: CBR red luminescence, cell number
# [2] = measured here: IkBa-CBG green luminescence
SMILES,AC50 [1],AC50 [2]
CC(=C/C(=O)O)/C(=C/c1ccccc1)C(=O)O,"14.6 µM [rising, partial curve]",–
S=C(Nc1ccc(Oc2ccccc2)cc1)N1CCN(c2ccccn2)CC1,"0.112 µM [rising, full curve, poor fit]","35.5 µM [rising, partial curve, poor fit]"
Cc1ccc(C)c(S(=O)(=O)N2CCN(C(=O)C3CCN(c4ncnc5sc(C)c(C)c45)CC3)CC2)c1,"32.6 µM [falling, single point]",–
O=C(CSc1ncnc2c1nnn2Cc1ccc(F)cc1)NCC1CCCO1 (configuration not stated),"3.55 µM [falling, partial curve, poor fit]",–
COc1cc(-c2nc3oc4ccccc4c(=O)c3c(=O)n2Cc2ccco2)cc(OC)c1OC,"4.47 µM [falling, full curve]",–
CC1(C)CC(=O)c2cnc(N3CCN(c4ccccc4)CC3)nc2C1,"11.2 µM [rising, partial curve]",–
O=C(Cn1cnc2c(cnn2-c2ccccc2)c1=O)Nc1ccc(S(=O)(=O)N2CCOCC2)cc1,"18.4 µM [falling, single point]",–
COCCn1c(-c2cccc([N+](=O)[O-])c2)nc2c1c(=O)[nH]c(=O)n2Cc1ccccc1,–,"23.1 µM [falling, partial curve, poor fit]"
O=C(CSc1ccc2nnc(-c3ccc(Cl)cc3)n2n1)N1CCCc2ccccc21,"4.61 µM [rising, full curve, poor fit]",–
CCSc1nnc(NC(=O)c2cc3c(s2)CCCC3)s1,"0.447 µM [rising, full curve, poor fit]",–
COc1cccc2c1C(=O)c1c(O)c3c(c(O)c1C2=O)C[C@@](O)(C(C)=O)C[C@@H]3O[C@H]1C[C@H](N)[C@H](O)[C@H](C)O1,"2.06 µM [falling, full curve]",–
Cn1c2ccccc2c2c(C(=O)NCc3ccco3)cn(C3CCCCC3)c(=O)c21,"14.6 µM [falling, partial curve, poor fit]","1.3 µM [rising, full curve, poor fit]"
CCC(=O)Nc1ccc(/C=C(\C(C)=O)C(=O)c2ccccc2)cc1,"35.5 µM [falling, single point]",–
O=C(c1cccs1)N1CCC(c2ccccc2)C1 (configuration not stated),"16.4 µM [falling, single point]",–
CCOc1ccc(-c2cnc(SCC(N)=O)nc2N)cc1,"6.51 µM [falling, partial curve, poor fit]",–
O=C(O)c1ccc(-c2ccc(/C=C3\NC(=O)N(Cc4ccc(Cl)cc4)C3=O)o2)cc1,"12.6 µM [falling, partial curve, poor fit]",–
CNC(=O)c1cc(Oc2ccc(NC(=O)Nc3ccc(Cl)c(C(F)(F)F)c3)cc2)ccn1,"10.3 µM [falling, partial curve]","2.31 µM [rising, partial curve, poor fit]"
CC(C)(C)NC(=O)CSc1nc(O)cc(=O)[nH]1,"14.6 µM [rising, partial curve, poor fit]",–
O=C(NC1CCN(C(=O)Nc2cccc(Cl)c2)CC1)C1CCCCC1,"11.2 µM [rising, partial curve, poor fit]",–
FC(F)(F)c1nc2ccccc2nc1N/N=C\c1ccccc1,"35.5 µM [rising, partial curve, poor fit]",–

# Some values from the results shown:
# In AC50 [1], COc1cc(-c2nc3oc4ccccc4c(=O)c3c(=O)n2Cc2ccco2)cc(OC)c1OC shows 4.47 µM [falling, full curve]
# In AC50 [1], FC(F)(F)c1nc2ccccc2nc1N/N=C\c1ccccc1 shows 35.5 µM [rising, partial curve, poor fit]

# The list goes on:

SMILES,AC50 [1],AC50 [2]
COc1cc(C=C(C(C)=O)C(C)=O)ccc1O,"29.1 µM [falling, single point]",–
COc1ccc(N2C(=O)C(C)(C)C2c2c(O)ccc3ccccc23)cc1 (configuration not stated),"7.94 µM [falling, partial curve]",–
COc1cccc(-c2cc(-c3cccnc3)nc(N)c2C#N)c1,"0.398 µM [falling, full curve]",–
COc1ccc(C(=O)NCc2cccnc2)cc1S(=O)(=O)N1CCOCC1,"29.1 µM [rising, single point]",–
C=CCC[C@@H](Cc1ccc(F)cc1)C(=O)OC[C@@H]1CCCN1C(=O)[C@H](CC=C)CC(=O)N[C@H](CO)Cc1ccccc1,"29.1 µM [falling, single point]",–
CCS(=O)(=O)N1Cc2ccccc2CC1C(=O)Nc1nc(C)cs1 (configuration not stated),"0.447 µM [rising, full curve, poor fit]",–
Cc1ccc(CNC(=O)Cc2noc3ccccc23)cc1,"11.2 µM [falling, partial curve]",–
CCN1CCCC1CNc1ncnc2c1[nH]c1ccc(Cl)cc12 (configuration not stated),"31.6 µM [falling, single point]",–
CCN(CC)CCCOC(=O)C1(c2ccccc2)CCCC1,"29.1 µM [falling, single point]",–
COc1ccc(/C=C/C(=O)c2cc(Br)ccc2OC(=O)c2ccco2)cc1OC,"13 µM [rising, partial curve]","10.3 µM [falling, partial curve]"
COc1cccc(C(=O)Nc2cccc(SC)c2)c1,"35.5 µM [falling, single point]",–
Cc1cc(=O)[nH]c(SCC(=O)Nc2ccc(Cl)cn2)n1,"0.82 µM [falling, full curve, poor fit]",–
COc1ccc(C(=O)NC(C)c2cc(OC)c(OC)cc2Br)cc1 (configuration not stated),"22.4 µM [rising, single point]",–
O=C(OCCCN=C1NS(=O)(=O)c2ccccc21)c1ccc(F)cc1,"2.31 µM [rising, partial curve, poor fit]",–
COc1ccc(/C=C2\SC(=S)N(CCCC(=O)N3CCCCC3CCO)C2=O)cc1 (configuration not stated),"1.41 µM [falling, full curve]",–
CC1CCCC(C)N1C(=O)COC(=O)c1cc([N+](=O)[O-])ccc1N1CCOCC1 (configuration not stated),"7.31 µM [rising, partial curve, poor fit]",–
Cc1ccccc1NC1=NC(=S)N(c2ccccc2)C12CCCCC2,"29.1 µM [falling, single point]",–
O=C1CCCN2N=C(SCC(=O)Nc3cccc(C(F)(F)F)c3)SC2=N1,"35.5 µM [falling, partial curve, poor fit]",–
Cn1cnc([N+](=O)[O-])c1Oc1ccc2ccccc2c1,"1.64 µM [falling, partial curve, poor fit]",–
Cc1nn(C)cc1NC(=O)CCSc1nc(-c2ccco2)cc(C(F)(F)F)n1,"4.61 µM [falling, partial curve]","2.91 µM [rising, partial curve, poor fit]"

SMILES,AC50 [1],AC50 [2]
Cc1c(NC(=O)C(C)OC(=O)COc2cccc3c2OC(C)(C)C3)c(=O)n(-c2ccccc2)n1C (configuration not stated),"20.6 µM [rising, single point]","29.1 µM [falling, single point]"
Cc1cc(C)n(-c2ccc(C(=O)OCC(=O)Nc3cc(S(C)(=O)=O)ccc3Cl)cc2)n1,"1.03 µM [rising, partial curve, poor fit]",–
O=C(CSc1nc2cc(Cl)ccc2s1)NC1CCCc2ccccc21 (configuration not stated),"0.731 µM [rising, full curve, poor fit]",–
CC(=O)N1c2ccccc2N(Cc2ccc(C)cc2C)C(=O)C1(C)C,"9.2 µM [falling, partial curve]",–
CCN(CC)c1ccc(NC(=O)C2CC3CCC2C3)cc1 (configuration not stated),"0.631 µM [rising, full curve]",–
C=CCOC(=O)c1sc(NC(=O)c2ccc(OC)cc2)nc1C,"0.0891 µM [falling, full curve, poor fit]","2 µM [rising, full curve, poor fit]"
COc1cc2c(cc1OC)C(COc1ccc(F)cc1)N(C(=O)Cc1ccccc1)CC2 (configuration not stated),"35.5 µM [falling, single point]",–
COc1ccccc1-c1cc(C(F)(F)F)nc(S(=O)(=O)CCCC(=O)Nc2cc(C)on2)n1,"35.5 µM [falling, single point]",–
CCn1c(=N)c(S(=O)(=O)c2ccc(F)cc2)cc2c(=O)n3ccccc3nc21,"3.16 µM [rising, partial curve, poor fit]",–
C=CCSC1=NNC(c2ccc(C(C)(C)C)cc2)=NN1,"28.2 µM [rising, single point]",–
COc1ccc(/C=N/NC(=O)CN2CCSCC2)cc1C,"25.9 µM [rising, single point]",–
COc1ccc(C(C)=O)cc1CSc1nnc(Nc2ccccc2C)s1,"6.51 µM [falling, partial curve]",–
CCOC(=O)c1cc(-c2ccccc2)sc1NC(=O)COC(=O)c1cccc(S(N)(=O)=O)c1,"3.98 µM [rising, partial curve, poor fit]",–
CC1(C)NC(=O)N(CC(=O)N2CCN(c3cccc(Cl)c3)CC2)C1=O,"6.51 µM [rising, partial curve, poor fit]",–
CC(C)CNC(=O)COc1ccccc1[N+](=O)[O-],"4.61 µM [rising, full curve, poor fit]",–
COc1ccc(-c2cc3nc(C)cc(N4CC(C)CC(C)C4)n3n2)cc1 (configuration not stated),"18.4 µM [rising, single point]",–
CC(=O)N1CCc2cc(Br)cc(S(=O)(=O)NCCCN3CCCC(C)C3)c21 (configuration not stated),"6.51 µM [rising, single point]",–
N#CC1=C(N)Oc2c(sc3ccccc23)C1c1ccco1 (configuration not stated),"15.8 µM [falling, single point]",–
C=CCn1c(NC(C)c2cc(Cl)ccc2O)nc2ccccc21 (configuration not stated),"28.2 µM [falling, single point]",–
O=c1nc(N2CCOCC2)nc(N/N=C/c2ccc3c(c2)OCO3)[nH]1,"22.4 µM [falling, partial curve, poor fit]",–
